Assay results as given in patent US7202329.
These are yes or no findings as the source states them, for the method shown. Some results given as binding are weak or reduced against the parent protein; the word gives no strength.

The chains behind the UniProt entries cited, without tags or fusion partners. Residues count along the entry.
UniProt Q99816, residues 240-390: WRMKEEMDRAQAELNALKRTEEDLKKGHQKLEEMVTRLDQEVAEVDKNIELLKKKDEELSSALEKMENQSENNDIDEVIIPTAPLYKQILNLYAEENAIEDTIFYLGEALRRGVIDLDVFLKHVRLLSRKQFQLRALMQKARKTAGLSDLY
UniProt P13647, residues 282-448: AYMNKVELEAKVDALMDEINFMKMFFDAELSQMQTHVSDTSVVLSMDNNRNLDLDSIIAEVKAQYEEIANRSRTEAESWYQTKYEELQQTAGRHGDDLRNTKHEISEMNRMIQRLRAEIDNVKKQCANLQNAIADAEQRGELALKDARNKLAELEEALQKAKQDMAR
keratin 8 (aa 147-406) (P05787, residues 147-406): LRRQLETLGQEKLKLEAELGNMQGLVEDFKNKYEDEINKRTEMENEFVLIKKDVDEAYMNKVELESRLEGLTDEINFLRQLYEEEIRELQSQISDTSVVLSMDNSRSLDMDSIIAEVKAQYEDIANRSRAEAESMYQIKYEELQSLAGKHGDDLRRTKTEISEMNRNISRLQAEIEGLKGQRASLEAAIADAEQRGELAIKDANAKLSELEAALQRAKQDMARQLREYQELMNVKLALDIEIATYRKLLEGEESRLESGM
keratin 8 (aa 293-394) (P05787, residues 293-394): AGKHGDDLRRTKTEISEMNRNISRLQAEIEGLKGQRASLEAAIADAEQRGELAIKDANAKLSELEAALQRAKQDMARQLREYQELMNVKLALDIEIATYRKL

What follows are substances tested against Tsg101 (aa 240-391) (human) (UniProt Q99816) (assay: yeast two-hybrid).

| Substance | binding |
| --- | --- |
| keratin 5 (aa 282-448) (from UniProt P13647 282-448) | binds |
| keratin 8 (aa 147-406) (from UniProt P05787 147-406) | binds |
| keratin 8 (aa 293-394) (from UniProt P05787 293-394) | binds |
